Drawing on article PMC10517141, this text covers binding for 3 molecules.

Amino acid sequences for entries named in this document (tags omitted).
UniProt Q07820: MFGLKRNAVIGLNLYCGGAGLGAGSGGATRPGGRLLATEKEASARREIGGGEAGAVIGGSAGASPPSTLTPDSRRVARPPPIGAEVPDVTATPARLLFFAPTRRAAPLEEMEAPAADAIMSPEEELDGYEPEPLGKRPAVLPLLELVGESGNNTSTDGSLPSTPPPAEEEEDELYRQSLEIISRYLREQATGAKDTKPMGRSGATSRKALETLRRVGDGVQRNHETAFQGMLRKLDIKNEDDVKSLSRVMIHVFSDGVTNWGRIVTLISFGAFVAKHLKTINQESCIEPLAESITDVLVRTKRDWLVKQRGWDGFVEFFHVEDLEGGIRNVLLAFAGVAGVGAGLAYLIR

No constants are given. Whether binding was seen depends on the method and setting. In cells and extracts the contact can be indirect. Some results given as binding are weak or reduced against the parent protein; the word gives no strength.

Assay [1] concerns the target T1, IRG1 overexpressed in HHL-5 cells (UniProt A6NK06).
T1 sequence: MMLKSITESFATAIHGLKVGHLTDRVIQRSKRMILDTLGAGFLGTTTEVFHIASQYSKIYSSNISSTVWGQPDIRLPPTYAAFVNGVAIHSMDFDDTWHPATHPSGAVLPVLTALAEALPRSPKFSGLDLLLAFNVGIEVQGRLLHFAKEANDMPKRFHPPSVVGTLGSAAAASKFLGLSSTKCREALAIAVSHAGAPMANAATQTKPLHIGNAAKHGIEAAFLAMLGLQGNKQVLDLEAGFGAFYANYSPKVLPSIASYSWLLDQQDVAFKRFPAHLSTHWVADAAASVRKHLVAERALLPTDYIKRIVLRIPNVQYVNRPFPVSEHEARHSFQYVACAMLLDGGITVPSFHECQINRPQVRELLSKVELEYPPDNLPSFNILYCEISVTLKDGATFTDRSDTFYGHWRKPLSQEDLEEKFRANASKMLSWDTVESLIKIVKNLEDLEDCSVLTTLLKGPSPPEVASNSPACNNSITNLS
Put plainly: co-IP; endogenous MCL-1 and Bim from lysates of BNL CL.2 and HHL-5 hepatocyte cell lines transfected with control vector or IRG1 overexpression plasmid.

Assay [2] addresses T2, Immunoresponsive gene 1 (IRG1), endogenous in mouse liver (mouse (endogenous in liver)) (UniProt P54987).
T2 sequence: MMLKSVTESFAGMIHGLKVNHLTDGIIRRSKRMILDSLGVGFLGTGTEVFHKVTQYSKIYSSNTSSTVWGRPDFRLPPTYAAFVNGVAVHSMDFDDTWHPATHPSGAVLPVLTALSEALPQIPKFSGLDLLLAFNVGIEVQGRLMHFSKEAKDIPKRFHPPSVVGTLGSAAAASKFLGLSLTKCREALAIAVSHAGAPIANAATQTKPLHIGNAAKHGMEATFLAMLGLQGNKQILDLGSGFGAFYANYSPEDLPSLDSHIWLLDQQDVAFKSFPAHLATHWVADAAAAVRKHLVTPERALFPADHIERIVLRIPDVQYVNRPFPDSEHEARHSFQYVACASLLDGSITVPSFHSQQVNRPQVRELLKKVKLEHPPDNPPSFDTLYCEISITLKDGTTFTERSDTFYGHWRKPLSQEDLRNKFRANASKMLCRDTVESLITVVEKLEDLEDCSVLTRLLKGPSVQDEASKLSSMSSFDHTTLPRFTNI
In words: co-IP; endogenous proteins from liver lysates of eight-week-old male mice (also Irg1 f/f and Irg1 hep-/-) injected with DEN or APAP; cell lysis buffer with protease inhibitor cocktail.

Assay [3] has as its target T3, IRG1 overexpressed in BNL CL.2 cells (UniProt P54987).
T3 sequence: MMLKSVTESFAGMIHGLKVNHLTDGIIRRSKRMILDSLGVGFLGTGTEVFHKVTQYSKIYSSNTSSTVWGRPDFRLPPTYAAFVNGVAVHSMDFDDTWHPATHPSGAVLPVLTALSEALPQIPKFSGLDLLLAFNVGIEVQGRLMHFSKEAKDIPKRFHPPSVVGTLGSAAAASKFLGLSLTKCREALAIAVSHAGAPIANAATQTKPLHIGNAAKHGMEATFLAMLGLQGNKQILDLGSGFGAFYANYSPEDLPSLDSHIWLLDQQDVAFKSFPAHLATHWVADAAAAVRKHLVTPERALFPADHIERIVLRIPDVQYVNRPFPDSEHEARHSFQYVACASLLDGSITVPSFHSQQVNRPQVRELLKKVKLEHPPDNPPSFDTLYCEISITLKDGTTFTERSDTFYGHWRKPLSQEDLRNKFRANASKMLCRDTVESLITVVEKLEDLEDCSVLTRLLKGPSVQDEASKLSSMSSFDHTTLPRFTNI
In words: co-IP; endogenous MCL-1 and Bim from lysates of BNL CL.2 and HHL-5 hepatocyte cell lines transfected with control vector or IRG1 overexpression plasmid.

For assay [4], the target named is T4, MCL-1, endogenous mouse protein (mouse (endogenous in liver and in BNL CL.2)), P97287.
T4 chain: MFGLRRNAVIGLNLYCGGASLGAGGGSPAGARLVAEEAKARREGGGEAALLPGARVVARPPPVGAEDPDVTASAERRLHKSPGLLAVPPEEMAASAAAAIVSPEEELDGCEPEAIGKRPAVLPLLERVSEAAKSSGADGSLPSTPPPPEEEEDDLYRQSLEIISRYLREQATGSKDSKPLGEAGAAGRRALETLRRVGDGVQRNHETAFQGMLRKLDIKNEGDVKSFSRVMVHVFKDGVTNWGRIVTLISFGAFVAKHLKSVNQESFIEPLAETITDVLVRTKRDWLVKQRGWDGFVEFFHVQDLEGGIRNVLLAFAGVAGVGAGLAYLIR
Put plainly: co-IP; endogenous proteins from liver lysates of eight-week-old male mice (also Irg1 f/f and Irg1 hep-/-) injected with DEN or APAP; cell lysis buffer with protease inhibitor cocktail. Conditions: remark: other sources report otherwise.

Assay [5] has as its target T4, MCL-1, endogenous mouse protein (mouse …). In words: co-IP; endogenous MCL-1 and Bim from lysates of BNL CL.2 and HHL-5 hepatocyte cell lines transfected with control vector or IRG1 overexpression plasmid. The note with it: remark: other sources report otherwise.

On to “MCL-1, endogenous in HHL-5 cells (from UniProt Q07820 1-350)”, for which the binding result in assay [1] is reported as “binds”.
Regarding “MCL-1, endogenous mouse protein (from UniProt P97287 1-331)”, the binding result in assay [2] and in assay [3] was “binds” each time.

B1: Bim (the longest Bim), endogenous mouse protein, O54918 1-196 (protein)
chain: MAKQPSDVSSECDREGGQLQPAERPPQLRPGAPTSLQTEPQGNPDGEGDRCPHGSPQGPLAPPASPGPFATRSPLFIFVRRSSLLSRSSSGYFSFDTDRSPAPMSCDKSTQTPSPPCQAFNHYLSAMASIRQSQEEPEDLRPEIRIAQELRRIGDEFNETYTRRVFANDYREAEDHPQMVILQLLRFIFRLVWRRH
On to B1, for which the binding result in assay [4] and in assay [5] was “binds” in each case.
